{
  "sequences": {"note": "Protein sequences, listed by entry. Tags and fused reporters are not part of them. Lines headed by an entry give the natural chain unless they say otherwise; changes in a name come on top.", "UniProt O43347": "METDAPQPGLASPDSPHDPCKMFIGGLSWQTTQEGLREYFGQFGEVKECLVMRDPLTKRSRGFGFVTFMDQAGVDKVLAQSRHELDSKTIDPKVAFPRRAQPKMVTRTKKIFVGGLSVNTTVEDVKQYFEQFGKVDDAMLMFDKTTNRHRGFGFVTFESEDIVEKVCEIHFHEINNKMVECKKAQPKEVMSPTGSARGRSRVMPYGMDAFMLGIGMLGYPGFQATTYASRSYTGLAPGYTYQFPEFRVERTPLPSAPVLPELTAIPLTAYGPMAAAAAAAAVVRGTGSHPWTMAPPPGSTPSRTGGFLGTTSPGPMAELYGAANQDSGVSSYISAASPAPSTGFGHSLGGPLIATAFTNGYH"},
  "source": "paper PMC7463734",
  "about": "“Identification and Validation of an Aspergillus nidulans Secondary Metabolite Derivative as an Inhibitor of the Musashi-RNA Interaction” (Cancers, 2020)",
  "key": {"[1]": {"target": "MSI1 (HCT-116 β/W cell lysate) (Homo sapiens) (UniProt O43347)", "test": "competition with a labelled probe", "conditions": "pull-down, abolishes Numbbiotin-MSI1 binding; protein in an extract"}, "MSI2-RBD1": {"target": "T1, MSI2-RBD1 (UniProt Q96DH6)", "T1 sequence (looked up, limits assumed)": "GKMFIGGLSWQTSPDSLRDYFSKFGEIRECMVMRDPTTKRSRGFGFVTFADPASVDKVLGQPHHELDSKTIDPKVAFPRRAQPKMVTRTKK", "test": "fluorescence polarization", "conditions": "binding disrupted by Aza-9; FP with 2 nM FITC-RNA; 0-2% DMSO had no significant effect (2 h incubation); pH and temperature not given (cited to earlier publications); recombinant protein; label: 3'-FITC"}},
  "note": "Construct, isoform or probe ends are uncertain for at least one entry. For some assays here: Where cells or extracts were used, other partners may take part. For some assays here: At least one verdict rests on a figure or table, not on a statement of the authors. For some assays here: Protein sequences can lack the tags named with them.",
  "data": [
    {"sequence": "UAGGUAGUAGUUUUA [Numb RNA, unlabeled]", "values": [
      {"measurement": "binding result", "setting": "[1]", "value": "binds"}
    ]},
    {"sequence": "UAGGUAGUAGUUUUA [NumbFITC RNA]", "values": [
      {"measurement": "binding result", "setting": "MSI2-RBD1", "value": "binds"}
    ]}
  ]
}
